# Laboratory results: PubChem BioAssay AID1487 (National Center for Advancing Translational Sciences (NCATS), 2009)
# The other results are listed elsewhere or left out. Further columns of the screen follow, without active or inactive calls. Most of these compounds were active or inconclusive in the main read-out, so they are no random draw. Words in brackets tell the shape of the fitted curve; partial curves, single points and poor fits give uncertain potencies.
# Test: qHTS Assay for Modulators of Lamin A Splicing
# Conditions: HeLa LMNA splicing GFP/RFP minigene ratio, 48 h
# Outline: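 S3 HeLa cells stably expressing lamin A-EGFP splicing minigene plus DsRed2, 600 cells/well, 48 h compound exposure at 37C. Laser-scanning cytometry; analysed as GFP (500-530 nm)/RFP (575-640 nm) total intensity ratio; 0.5% DMSO vehicle.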
# [1] = measured here: GFP splicing reporter channel
# [2] = measured here: RFP viability control channel
Compound,AC50 [1],AC50 [2]
CCOC(=O)C1=C(O)/C(=C/c2ccccn2)SC1=Nc1ccc(Cl)cc1,"12.6 µM [falling, partial curve, poor fit]",
CCOc1ccccc1NC(=O)Cn1cnc2c(cnn2-c2ccc(C)c(C)c2)c1=O,"0.794 µM [rising, single point]",
CCOC(=O)/C=C1\NC(C)(C)Cc2cc(OC)c(OC)cc21,"0.02 µM [falling, full curve, poor fit]","0.0316 µM [falling, full curve]"
CCn1c(=O)[nH]c2cc(Cl)c(Cl)cc21,"0.794 µM [falling, full curve]","0.0891 µM [falling, full curve]"
CCCCCCOc1ccc(C2C(=O)N(C3CCCCC3)CC(=O)N2CCC)cc1 (stereo unspecified),"0.0398 µM [falling, full curve, poor fit]",
Cc1ccc(NC(=O)C(C)c2cccc(C(=O)c3ccccc3)c2)cc1 (stereo unspecified),"2.82 µM [rising, full curve]","8.91 µM [rising, partial curve]"
CCOc1[nH]n(-c2ccccc2)c(=O)c1C=Nc1ccc(C)cc1,,"0.158 µM [falling, single point]"
CCOC(=O)Nc1ccc(S(=O)(=O)NC2CCCCC2)cc1,,"35.5 µM [rising, single point]"
O=C(Nc1ccc(N2CCOCC2)cc1)c1cc2c(s1)CCCCC2,,"5.01 µM [rising, full curve, poor fit]"
Cc1cccc(N2CCN(C(=O)Nc3cn(CC(C)C)c(=O)c4ccccc34)CC2)c1C,"12.6 µM [falling, single point]",
COc1ccccc1Cc1nc2ccccc2nc1SCC(=O)N(C)c1ccc(F)cc1,,"12.6 µM [rising, single point]"
COc1ccc(/C=C/C(=O)NC(=S)NNC(=O)c2ccco2)cc1,,"8.91 µM [rising, partial curve]"
COc1ccc(NC(=O)CSc2nnc(NC(=O)Nc3ccc(OC)cc3)s2)cc1,,"5.62 µM [rising, single point]"
Cc1cccc(N2CCN(C(=O)c3cccc(S(=O)(=O)N4CCc5ccccc5C4)c3)CC2C)c1 (stereo unspecified),"12.6 µM [rising, partial curve, poor fit]","10 µM [rising, partial curve]"
S=C(NCCc1ccccc1)NC1CC1,"0.355 µM [rising, single point]",
O=C(Nc1cccc(S(=O)(=O)N2CCOCC2)c1)[C@@H]1CCCN1S(=O)(=O)c1ccc(Cl)cc1,,"11.2 µM [rising, single point]"
COc1cccc(Nc2sc(C(=O)c3ccc(F)cc3)c(N)c2C(=O)NCc2ccc(Cl)cc2)c1,"31.6 µM [rising, single point]","20 µM [rising, single point]"
CCOC(=O)c1c(-c2ccccc2)n(C)c2ccc(O)cc12,,"20 µM [rising, single point]"
COc1ccc(-c2ccc(NS(=O)(=O)c3ccc(C(C)=O)cc3)cc2)nn1,"0.00631 µM [falling, full curve, poor fit]",

Compound,AC50 [1],AC50 [2]
O=C(Cc1ccccc1)Nn1c(O)c(/C=C2\C=Nc3ccccc32)sc1=S,,"25.1 µM [rising, single point]"
COc1ccc(C(=O)NC(=S)NNC(=O)c2cnccn2)cc1OC,,"5.62 µM [rising, single point]"
O=C(CSc1ncn[nH]1)N1N=C(c2ccc(Cl)cc2)CC1c1ccco1 (stereo unspecified),"20 µM [falling, partial curve, poor fit]",
O=S(=O)(NCCCCCNS(=O)(=O)c1ccccc1)c1ccccc1,"0.00316 µM [falling, full curve, poor fit]","25.1 µM [falling, partial curve, poor fit]"
CC(=O)c1ccc(Sc2ccccc2N)c([N+](=O)[O-])c1,"0.0447 µM [rising, full curve, poor fit]",
CC(C)N(C(=O)CSc1nnc(-c2cc3ccccc3cc2O)n1Cc1ccco1)C(C)C,,"15.8 µM [rising, partial curve]"
CCOC(=O)c1[nH]ncc1CN1CCCC(C(=O)c2cccc3ccccc23)C1 (stereo unspecified),"35.5 µM [falling, single point]","7.94 µM [falling, partial curve, poor fit]"
CC(C)C(NC(=S)Nc1ccccc1)C(=O)O (stereo unspecified),,"0.00447 µM [falling, full curve, poor fit]"
CCS(=O)(=O)c1nnnn1-c1ccccc1S(C)(=O)=O,,"17.8 µM [rising, single point]"
Cc1ccc(C)c(N2CCN(C(=O)c3ccc(NC(=O)c4nsc5ccccc45)cc3)CC2)c1,"0.891 µM [falling, full curve, poor fit]",
Oc1c(CN2CCCCC2)cc(Br)c2cccnc12,"0.00501 µM [falling, full curve, poor fit]","0.01 µM [falling, full curve]"
COc1ccccc1CNC(=S)NC1CCCCC1,,"14.1 µM [rising, partial curve]"
Cc1ccc(OCCC(=O)Nc2ccc(F)c(F)c2)cc1,"1.41 µM [rising, partial curve, poor fit]",
CCCOc1ccc(/C=N/NC(=O)CSCc2ccc([N+](=O)[O-])cc2)cc1OCC,,"11.2 µM [rising, partial curve]"
CCc1ccc(/C=C2\SC(=S)N(CCC(=O)N3CCN(C)CC3)C2=O)cc1,"7.08 µM [falling, full curve, poor fit]","8.91 µM [rising, partial curve, poor fit]"
CC(C)n1cc(-c2nc(C(=O)NN)cs2)c(=O)n(Cc2ccccc2)c1=O,"35.5 µM [falling, single point]","35.5 µM [falling, single point]"
Oc1ccccc1-c1cc(C(F)(F)F)nc(-c2ccccc2)n1,,"5.01 µM [falling, full curve, poor fit]"
COc1ccc(C=O)cc1COc1ccc(C)cc1[N+](=O)[O-],"25.1 µM [falling, single point]","20 µM [falling, single point]"
C=CCOc1c(Cl)cc(CNc2ccc(C)c(Cl)c2)cc1OC,"8.91 µM [falling, partial curve]","11.2 µM [falling, partial curve]"

Compound,AC50 [1],AC50 [2]
CCC(OC(=O)c1cc2sccc2n1C)C(=O)NCC1CCCO1 (stereo unspecified),"12.6 µM [rising, partial curve]","22.4 µM [rising, partial curve]"
C/C(=C\C(=O)c1ccc(C)o1)Nc1ccc(C(=O)O)cc1C,,"0.447 µM [rising, partial curve, poor fit]"
Cc1nc(C)c(-c2ccc(SCC(=O)Nc3ccc(Br)cc3)nn2)s1,"0.112 µM [falling, full curve, poor fit]",
CCCCCCC1CC(CC(=O)Nc2ccc([N+](=O)[O-])cc2)C(=O)O1 (stereo unspecified),,"35.5 µM [rising, single point]"
CCn1nc(C(=O)Nc2nc3ccccc3[nH]2)c2ccccc2c1=O,"6.31 µM [rising, partial curve]",
Cc1sc2nc(CC(N)=O)[nH]c(=O)c2c1-c1ccccc1,,"0.00447 µM [falling, full curve, poor fit]"
C/C(=N\NC(=O)c1ccccc1O)c1ccc(Br)s1,,"11.2 µM [rising, single point]"
Cc1c(Br)c([N+](=O)[O-])nn1CC(=O)NCc1ccccc1,"8.91 µM [rising, partial curve]",
CC(/C=N/NC(=O)c1ccco1)=C\c1ccccc1,"0.562 µM [rising, partial curve, poor fit]",
O=C(NC(=S)Nc1ccccc1Cl)c1cnn2c(C(F)(F)F)cc(C(F)(F)F)nc12,"6.31 µM [falling, single point]","4.47 µM [falling, full curve]"
CN(c1ccc(C(=O)Nc2nccs2)cc1)S(=O)(=O)c1ccccc1,,"14.1 µM [rising, partial curve]"
COC(=O)c1ccc(C(=O)Nc2nnc(-c3cccnc3)o2)cc1,,"3.55 µM [rising, partial curve, poor fit]"
CC(C)Cn1c(-c2ccco2)nc2c(c(=O)c3ccccc3n2C)c1=O,,"14.1 µM [rising, single point]"
COc1ccc(S(=O)(=O)N2CCN(c3cc(-c4ccccc4)nc4ncnn34)CC2)cc1,"11.2 µM [rising, partial curve]","14.1 µM [rising, partial curve]"
Brc1ccc(Nc2nc(-c3cccnc3)cs2)cc1,"25.1 µM [falling, single point]","11.2 µM [falling, single point]"
Cn1c(=O)n(C)c2cc(NS(=O)(=O)c3cccs3)ccc21,"35.5 µM [falling, single point]","20 µM [falling, single point]"
O=C(CCl)N1c2ccccc2OCC1c1ccccc1 (stereo unspecified),"31.6 µM [falling, single point]","35.5 µM [falling, single point]"
Cc1cc(NC(=O)CSc2nccn2-c2cccc(C)c2C)no1,,"0.00708 µM [falling, full curve]"
CC(C)c1ccc(C2=CC(c3ccc(C(C)C)cc3)n3nnnc3N2)cc1 (stereo unspecified),"14.1 µM [rising, partial curve]","11.2 µM [rising, partial curve, poor fit]"
